The list shows a part of the results. Further columns of the screen follow, without active or inactive calls. Compounds called inactive in the main read-out are mostly missing here. Words in brackets tell the shape of the fitted curve; partial curves, single points and poor fits give uncertain potencies.
Assay: qHTS Assay to Find Inhibitors of Chronic Active B-Cell Receptor Signaling
Conditions: ABC-DLBCL IkBa-CBG/CBR reporter, luminescence ratio (green luciferase fused to IkBa over red control in TMD8 lymphoma cells), 4 h
Summary of the method: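 Compounds up to 46 uM were incubated four hours with TMD8 cells whose green CBG68 luciferase is fused to IkappaBalpha; red CBR luminescence normalised the signal, and concentration-effect curves were fitted to fusion, red and ratio data.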

[1] = measured here: CBR red luminescence, cell number
[2] = measured here: IkBa-CBG green luminescence

## Cc1ccc(NC(=O)Cc2nc(COC(=O)Cc3cccc(C(F)(F)F)c3)cs2)cc1
[1]
  AC50: 29.1 µM [rising, single point]

## Cc1ccc(NC(=O)C2=NNC(=O)CC2)cc1F
[1]
  AC50: 35.5 µM [falling, single point]

## CC(=O)[C@@]1(O)CC[C@H]2[C@@H]3C[C@H](C)C4=CC(=O)CC[C@]4(C)[C@H]3CC[C@@]21C
[1]
  AC50: 0.0058 µM [rising, full curve, poor fit]

## CS(=O)(=O)N(CC(=O)Nc1ccccc1C(=O)NCc1ccco1)c1ccc2c(c1)OCCO2
[1]
  AC50: 29.1 µM [falling, single point]

## COc1cc(C(Nc2ccccn2)c2ccc3ccc(C)nc3c2O)cc(OC)c1O (stereo not drawn)
[1]
  AC50: 2.24 µM [falling, full curve, poor fit]

## O=C(Nc1ccccc1O)c1ccc([N+](=O)[O-])cc1
[1]
  AC50: 7.94 µM [falling, partial curve]

## Cc1cccc(NC(=O)c2ccc(C3SCC(=O)N3CCc3ccccc3)cc2)c1C (stereo not drawn)
[1]
  AC50: 5.8 µM [falling, partial curve, poor fit]

## CC(C)CNC(=O)c1ccccc1NC(=O)c1ccc(CSc2ccccc2)cc1
[1]
  AC50: 16.4 µM [rising, partial curve]

## O=C(/C=C/c1cccc(O)c1)c1cccnc1
[1]
  AC50: 14.1 µM [falling, partial curve, poor fit]

## S=c1nn[nH]n1C12CC3CC(CC(C3)C1)C2
[1]
  AC50: 11.6 µM [rising, partial curve]
[2]
  AC50: 8.2 µM [falling, partial curve]

## O=C(CC1Nc2cccc3cccc(c23)NC1=O)Nc1ccccc1 (stereo not drawn)
[1]
  AC50: 0.58 µM [falling, full curve]

## CCc1ccc(OCC(=O)NNC(=O)Cc2ccc(S(=O)(=O)N3CCOCC3)s2)cc1
[1]
  AC50: 29.1 µM [rising, single point]

## O=c1[nH]c2ccccc2cc1CN(Cc1ccco1)S(=O)(=O)c1ccc(F)cc1
[1]
  AC50: 11.2 µM [falling, partial curve]

## COc1cccc(/C=N/n2cnc3ccccc32)c1OC
[1]
  AC50: 2.91 µM [rising, partial curve]

## CCc1cc2c(SCC(=O)NC3CC3)ncnc2s1
[1]
  AC50: 29.1 µM [rising, single point]
[2]
  AC50: 23.1 µM [falling, partial curve]

## O=C(Nc1cccc(S(=O)(=O)NC2=NCCCCC2)c1)c1ccc(Cl)cc1
[1]
  AC50: 7.31 µM [falling, single point]

## Cc1cc(NC(=O)c2cccs2)no1
[1]
  AC50: 14.1 µM [falling, single point]

## S=C(NCCC(c1ccccc1)c1ccccc1)Nc1ccccc1Cl
[1]
  AC50: 8.91 µM [falling, partial curve, poor fit]

## Cc1ccccc1C(=O)Nc1nnc(-c2cccnc2)o1
[1]
  AC50: 8.91 µM [falling, partial curve, poor fit]

## COc1ccccc1/C=C/C(=O)Nc1cccc(S(=O)(=O)NC2=NCCCCC2)c1
[1]
  AC50: 2 µM [falling, full curve]

## COc1ccc(C(=O)NNC(=O)C2CC=CCC2)cc1 (stereo not drawn)
[1]
  AC50: 11.2 µM [falling, partial curve, poor fit]

## Cc1ccc(C)c(NC(=O)COC(=O)c2ccc3ccccc3n2)c1
[1]
  AC50: 2.59 µM [falling, partial curve, poor fit]

## CC(=O)Nc1cccc(C(=O)OC(C)C(=O)NCc2ccc3c(c2)OCO3)c1 (stereo not drawn)
[1]
  AC50: 16.4 µM [rising, partial curve, poor fit]

## Cn1nc(-c2ccccc2)c2cc(C(=O)O)sc21
[1]
  AC50: 20 µM [falling, single point]

## O=C(CCCOc1ccc(Cl)cc1Cl)Nc1ccncc1
[1]
  AC50: 2.31 µM [rising, partial curve, poor fit]

## Cc1occc1C(=O)NNC(=O)NC12CC3CC(CC(C3)C1)C2
[1]
  AC50: 2.06 µM [falling, partial curve, poor fit]

## NC(=S)N/N=C/c1coc2ccc(F)cc2c1=O
[1]
  AC50: 35.5 µM [rising, partial curve, poor fit]

## O=C1SC(Cc2ccccc2)C(=O)N1c1ccccc1 (stereo not drawn)
[1]
  AC50: 15.8 µM [rising, single point]

## O=C(O)c1ccc(OS(=O)(=O)c2ccc(Cl)s2)cc1
[1]
  AC50: 6.51 µM [rising, single point]

## COc1cc(Nc2nc3ccccc3n3nnnc23)cc(OC)c1OC
[1]
  AC50: 11.2 µM [falling, partial curve]

## CN(C)/C=C1\C=C2C(=O)c3ccccc3N2C1=O
[1]
  AC50: 12.6 µM [falling, partial curve]

## N#CC1=C(SCC(=O)c2cc3ccccc3oc2=O)NC(=O)C(C#N)C12CCCC2 (stereo not drawn)
[1]
  AC50: 0.651 µM [falling, full curve, poor fit]

## COc1ccc(N2CCN(c3cnc4ccccc4n3)CC2)cc1
[1]
  AC50: 0.316 µM [rising, full curve, poor fit]

## CCN(CC)CC(=O)c1ccc(-c2ccccc2)cc1
[1]
  AC50: 18.4 µM [falling, single point]

## CS(=O)(=O)c1ccc(C(=O)OCC(=O)NC(=O)C2CCCCC2)cc1[N+](=O)[O-]
[1]
  AC50: 10 µM [falling, partial curve, poor fit]

## CCOC(=O)Cc1csc(NC(=O)c2ccc3c(c2)OCO3)n1
[1]
  AC50: 10.3 µM [falling, partial curve]

## O=C1CN(C(=O)COC(=O)C23CC4CC(CC(O)(C4)C2)C3)c2ccccc2N1
[1]
  AC50: 4.11 µM [rising, single point]

## CC(C)Cn1nc(NC(=O)C2CCCO2)c2cc3ccccc3nc21 (stereo not drawn)
[1]
  AC50: 12.6 µM [falling, partial curve]

## CCOC(=O)C1CCN(C(=O)CSc2nc3ncccc3[nH]2)CC1
[1]
  AC50: 35.5 µM [falling, single point]

## COC(=O)CSc1nc(COc2ccccc2)nc2ccccc12
[1]
  AC50: 11.2 µM [falling, partial curve, poor fit]

## O=C(O)C1CC=CCC1C(=O)Nc1ccc(F)c(F)c1 (stereo not drawn)
[1]
  AC50: 23.1 µM [rising, partial curve, poor fit]

— PubChem BioAssay AID493014 (National Center for Advancing Translational Sciences (NCATS), 2011)
